Experimental data published in patent publication US20260384479A1, “PEPTIDES AS ANTAGONISTS OF IKAROS ZINC FINGER FAMILY (IKZF) PROTEINS TO ACTIVATE THE IMMUNE SYSTEM AGAINST TUMOR CELLS” (published 2026).
Certain results were filed several times, with different values. This is not the full list of results. The source may hold further records. Results that share an entry differ for a reason that is not stated; dose, time, organism, isomer or construct need not be as stated for each record.

System: human T-cells
Test: ELISA for IL-2 secretion of T cells
Conditions: 10 μM peptide, 24 hours, T cells of healthy donors, serum-free medium
Description: C1 IKZF3 Domain Modified peptide (C1M) (Table 1) was tested in cell culture model to examine its ability to abrogate the IKZF1-IKZF3-induced IL-2 suppression. 18 different healthy donors were used to isolate the T cells using magnetic cell sorting approach. Afterwards, T cells were cultured for 24 hours in serum-free T cell medium and either 10 μM of the C1M peptide or Scrambled as a negative control or 10 μM Lenalidomide or 1 μM of Pomalidomide (as an IMiD control which have been previously described).
After 24 hours, the supernatant was collected and centrifuged to remove any cells and stored in-20 degrees. […]
In this assay, T cells were isolated from the peripheral blood of healthy donors and cultured in serum-free medium. […] After 24 hours, the supernatants from the cells were collected, and the levels of IL-2 were measured using a sensitive ELISA kit according to the manufacturer's instructions.
By comparing the levels of IL-2 secretion in cells treated with the testing peptide versus the control peptide, we were able to determine the peptide's ability to increase IL-2 secretion in T cells. This assay provided a quantitative readout of the peptide's activity and allowed us to accurately assess the effectiveness of the peptide in promoting IL-2 secretion.

**Q.** Which IL-2 secretion does the source give for `CC[C@H](C)[C@H](NC(=O)[C@@H](NC(=O)[C@H](Cc1ccccc1)NC(=O)[C@H](CCSC)NC(=O)[C@@H](NC(=O)[C@H](Cc1ccc(O)cc1)NC(=O)[C@H](CC(=O)O)NC(=O)[C@H](CC(C)C)NC(=O)[C@H](Cc1ccccc1)NC(=O)[C@H](CC(C)C)NC(=O)[C@@H](NC(=O)[C@H](CCCNC(=N)N)NC(=O)[C@H](CS)NC(=O)[C@H](Cc1c[nH]cn1)NC(=O)[C@H](CC(=O)O)NC(=O)[C@H](CS)NC(=O)[C@H](CCCNC(=N)N)NC(=O)[C@H](Cc1ccc(O)cc1)NC(=O)[C@H](CCCNC(=N)N)NC(=O)[C@@H](N)CCCNC(=N)N)C(C)C)C(C)C)[C@@H](C)O)C(=O)N[C@@H](Cc1c[nH]cn1)C(=O)N[C@@H](CCSC)C(=O)NCC(=O)N[C@@H](CS)C(=O)N[C@@H](Cc1c[nH]cn1)C(=O)N[C@@H](CCCNC(=N)N)C(=O)N[C@@H](CCCNC(=N)N)C(=O)N[C@@H](CCCNC(=N)N)C(=O)N[C@@H](CCCNC(=N)N)C(=O)O` here?
**A.** The IL-2 secretion was “in all cases, IL-2 secretion increased and increase in IL-2 production”.
